One test addresses Flag-FASN (UniProt P49327). Nature of the test: co-IP; lysates of HEK293T cells expressing Flag-FASN and HA-ZDHHC21; anti-Flag or anti-HA magnetic beads; western blot.
The target in test [1] is FASN (human (endogenous in Toledo)) (UniProt P49327). Nature of the test: co-IP; cellular extracts of Toledo cells incubated with anti-FASN or anti-ZDHHC21 antibodies; western blot; endogenous proteins.

The chains behind the UniProt entries cited, without tags or fusion partners.
UniProt P49327: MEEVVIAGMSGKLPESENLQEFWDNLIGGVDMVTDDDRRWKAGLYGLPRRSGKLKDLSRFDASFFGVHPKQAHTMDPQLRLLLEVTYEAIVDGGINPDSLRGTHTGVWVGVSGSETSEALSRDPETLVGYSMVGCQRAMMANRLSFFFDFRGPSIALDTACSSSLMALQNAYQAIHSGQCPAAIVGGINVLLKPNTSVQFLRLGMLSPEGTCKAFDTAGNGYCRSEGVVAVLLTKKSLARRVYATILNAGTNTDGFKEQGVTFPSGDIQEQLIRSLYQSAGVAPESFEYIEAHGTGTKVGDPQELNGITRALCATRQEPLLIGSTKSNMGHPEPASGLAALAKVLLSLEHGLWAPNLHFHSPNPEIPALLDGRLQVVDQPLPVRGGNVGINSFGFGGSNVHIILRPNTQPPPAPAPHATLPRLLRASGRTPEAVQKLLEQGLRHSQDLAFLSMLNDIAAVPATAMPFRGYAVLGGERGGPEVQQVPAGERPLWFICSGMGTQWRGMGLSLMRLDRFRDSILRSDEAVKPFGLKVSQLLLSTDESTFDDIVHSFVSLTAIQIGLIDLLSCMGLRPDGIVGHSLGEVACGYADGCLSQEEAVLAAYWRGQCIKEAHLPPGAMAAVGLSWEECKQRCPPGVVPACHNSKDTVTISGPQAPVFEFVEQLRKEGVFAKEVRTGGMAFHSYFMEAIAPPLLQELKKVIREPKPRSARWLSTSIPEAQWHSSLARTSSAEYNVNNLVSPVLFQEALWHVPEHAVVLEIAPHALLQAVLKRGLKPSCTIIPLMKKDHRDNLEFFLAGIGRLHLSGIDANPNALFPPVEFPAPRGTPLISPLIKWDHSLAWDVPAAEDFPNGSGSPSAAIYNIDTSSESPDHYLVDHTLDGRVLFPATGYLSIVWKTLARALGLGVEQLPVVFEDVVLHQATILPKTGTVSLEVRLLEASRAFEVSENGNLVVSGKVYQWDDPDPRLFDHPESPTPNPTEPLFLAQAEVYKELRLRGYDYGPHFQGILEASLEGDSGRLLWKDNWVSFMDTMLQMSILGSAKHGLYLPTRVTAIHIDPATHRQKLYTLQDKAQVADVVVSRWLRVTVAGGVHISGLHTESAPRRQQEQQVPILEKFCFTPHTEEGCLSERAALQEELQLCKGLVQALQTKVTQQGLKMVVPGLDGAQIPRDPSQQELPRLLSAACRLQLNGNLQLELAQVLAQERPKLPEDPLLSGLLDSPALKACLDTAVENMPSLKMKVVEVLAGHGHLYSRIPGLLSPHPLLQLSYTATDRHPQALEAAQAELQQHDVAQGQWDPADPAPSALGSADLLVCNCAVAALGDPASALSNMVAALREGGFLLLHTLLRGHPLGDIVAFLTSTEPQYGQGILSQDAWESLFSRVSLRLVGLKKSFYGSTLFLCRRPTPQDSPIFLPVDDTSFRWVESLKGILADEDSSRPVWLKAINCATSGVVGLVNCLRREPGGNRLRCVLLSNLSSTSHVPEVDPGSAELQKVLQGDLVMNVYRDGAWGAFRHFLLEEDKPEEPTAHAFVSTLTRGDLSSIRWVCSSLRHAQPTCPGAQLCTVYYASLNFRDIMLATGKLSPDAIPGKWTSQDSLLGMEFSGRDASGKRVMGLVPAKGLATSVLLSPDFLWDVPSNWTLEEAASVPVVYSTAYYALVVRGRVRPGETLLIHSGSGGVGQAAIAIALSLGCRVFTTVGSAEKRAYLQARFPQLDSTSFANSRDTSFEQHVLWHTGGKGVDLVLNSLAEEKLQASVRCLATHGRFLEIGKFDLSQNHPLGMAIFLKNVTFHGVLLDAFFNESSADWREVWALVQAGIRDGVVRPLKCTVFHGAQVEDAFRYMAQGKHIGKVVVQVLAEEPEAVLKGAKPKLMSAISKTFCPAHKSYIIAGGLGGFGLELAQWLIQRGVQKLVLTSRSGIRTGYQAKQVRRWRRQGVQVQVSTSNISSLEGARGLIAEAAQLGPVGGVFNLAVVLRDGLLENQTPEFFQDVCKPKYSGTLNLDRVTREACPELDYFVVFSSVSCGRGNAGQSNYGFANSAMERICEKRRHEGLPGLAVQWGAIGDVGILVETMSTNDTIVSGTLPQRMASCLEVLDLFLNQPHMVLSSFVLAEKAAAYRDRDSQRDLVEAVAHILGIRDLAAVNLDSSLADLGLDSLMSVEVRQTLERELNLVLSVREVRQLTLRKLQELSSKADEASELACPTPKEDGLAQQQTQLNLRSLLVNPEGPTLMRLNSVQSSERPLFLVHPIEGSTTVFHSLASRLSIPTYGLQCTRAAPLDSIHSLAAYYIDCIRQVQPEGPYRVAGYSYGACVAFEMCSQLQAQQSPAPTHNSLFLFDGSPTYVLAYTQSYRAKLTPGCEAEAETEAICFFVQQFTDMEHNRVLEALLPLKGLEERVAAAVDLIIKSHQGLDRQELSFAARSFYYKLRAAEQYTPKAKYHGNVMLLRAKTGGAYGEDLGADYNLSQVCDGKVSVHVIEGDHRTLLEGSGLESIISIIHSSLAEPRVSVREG

These are yes or no findings as the source states them, for the method shown. Binding seen in cells or lysates may run through a third protein. Some results given as binding are weak or reduced against the parent protein; the word gives no strength. For some assays here: Where a sequence is shown, tags or fusion partners need not be part of it.

B1: HA-ZDHHC21 (enzyme, UniProt Q8IVQ6 1-265)
chain: MGLRIHFVVDPHGWCCMGLIVFVWLYNIVLIPKIVLFPHYEEGHIPGILIIIFYGISIFCLVALVRASITDPGRLPENPKIPHGEREFWELCNKCNLMRPKRSHHCSRCGHCVRRMDHHCPWINNCVGEDNHWLFLQLCFYTELLTCYALMFSFCHYYYFLPLKKRNLDLFVFRHELAIMRLAAFMGITMLVGITGLFYTQLIGIITDTTSIEKMSNCCEDISRPRKPWQQTFSEVFGTRWKILWFIPFRQRQPLRVPYHFANHV
Regarding B1, the binding result in the test with Flag-FASN was “binds”.

B2: ZDHHC21 (enzyme, UniProt Q8IVQ6 1-265)
chain: B1 chain
Turning to B2, in test [1], the binding entry was “binds”.

For the origin of these results see paper PMC10844076.
